The data set can be described thus: Odor of the chemical (Table 1). On the set-up: species or system human.

Take `Cc1nc2ccccc2n1CCc1ccccc1` [Example 1, 2-methyl-1-phenethyl-1H-benzo[d]imidazole]: the Odor result is “None”.
In the case of `COc1ccc(CCn2c(C)nc3ccccc32)cc1` [Example 2, 1-(4-methoxyphenethyl)-2-methyl-1H-benzo[d]imidazole], the Odor entry is “None”.
With `CC1CCC(C(C)C)C(O)C1` (stereo not shown) [I-Menthol, I-menthol], the Odor entry is “Minty”.
For the compound `CCNC(=O)C1CC(C)CCC1C(C)C` (stereo not shown) [WS-3, N-ethyl p-menthanecarboxamide], the Odor entry was “None”.

The record behind these values is US20100297038A1, “Benzimidazole Derivatives And Their Use As Cooling Agents” (Givaudan S.A., priority 2008, published 2010).
